Assay results published in paper doi:10.1101/115071.
Results are given in words; binding and its absence hold for the method and conditions named. For part of these data: In cells and extracts the contact can be indirect. Some entries that bind do so weakly or less than the wild type. For part of these data: Sequences can lack the tags named with a protein.

By UniProt entry, the sequences of proteins in these tests, tags left out.
UniProt Q9FTA2: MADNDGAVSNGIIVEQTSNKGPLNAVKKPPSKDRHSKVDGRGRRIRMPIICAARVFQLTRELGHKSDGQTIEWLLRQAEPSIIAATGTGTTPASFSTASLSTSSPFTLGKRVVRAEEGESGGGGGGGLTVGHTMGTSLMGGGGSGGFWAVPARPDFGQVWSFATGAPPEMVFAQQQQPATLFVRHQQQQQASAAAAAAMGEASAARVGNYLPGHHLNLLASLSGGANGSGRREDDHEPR

Legend:
[1] = biological target: GAL4-BD-CHE (Arabidopsis thaliana) (UniProt Q9FTA2); experiment: two-hybrid
[2] = biological target: T1, FLAG-tagged ZTL decoy (Arabidopsis thaliana) (UniProt Q94BT6); experiment: co-IP
T1 sequence: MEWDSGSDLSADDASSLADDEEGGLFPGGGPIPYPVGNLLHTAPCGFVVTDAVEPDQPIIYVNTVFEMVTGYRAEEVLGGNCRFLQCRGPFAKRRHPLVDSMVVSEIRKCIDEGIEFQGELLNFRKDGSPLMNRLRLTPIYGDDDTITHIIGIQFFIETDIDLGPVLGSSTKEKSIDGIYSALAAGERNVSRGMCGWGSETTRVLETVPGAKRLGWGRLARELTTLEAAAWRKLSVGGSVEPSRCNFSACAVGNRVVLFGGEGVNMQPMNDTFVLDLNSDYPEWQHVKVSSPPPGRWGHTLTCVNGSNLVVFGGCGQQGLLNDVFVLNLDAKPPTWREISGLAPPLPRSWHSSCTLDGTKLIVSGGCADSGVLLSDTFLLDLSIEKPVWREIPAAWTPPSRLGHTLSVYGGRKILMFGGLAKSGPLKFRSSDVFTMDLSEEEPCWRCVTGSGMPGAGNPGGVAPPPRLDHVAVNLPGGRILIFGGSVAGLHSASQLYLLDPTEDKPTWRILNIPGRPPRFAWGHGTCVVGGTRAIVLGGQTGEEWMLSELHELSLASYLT

[3] = biological target: FLAG-tagged full length ZTL (Arabidopsis thaliana) (UniProt Q94BT6); experiment: co-IP

| binding [1] | binding [2] | binding [3] | Substance |
| --- | --- | --- | --- |
| binds | – | – | GAL4-AD-ZTL full length (from UniProt Q94BT6 1-609) |
| – | binds | binds | GFP-tagged CHE (from UniProt Q9FTA2 1-239) |
